In patent publication US6696486B1, “Medical use for atypical β-adrenoceptor agonists” (Glaxo Group Limited, priority 1992, dated 2004):

Tested on: indomethacin-induced antral damage
Test: indomethacin-induced gastric antral lesions in the re-fed rat (Method 2)
Assay type: in vivo
Conditions: (S)-propranolol 10 mg/kg i.p.
Text: An experimental model in which atypical beta-adrenoceptor agonists may be shown to be of use in the treatment of gastrointestinal disorders is described below as Method 2. The procedure is based upon that described by H. Satoh et. al., Gastroenterology, 81, 719-725 (1981) in which the effect of compounds on indomethacin-induced gastric antral lesions in the re-fed rat is investigated. Indomethacin is an example of the class of compound known as non-steroidal anti-inflammatory drugs (NSAIDs), the use of which is frequently associated with gastrointestinal ulcers.
Food (but not water) is withheld from female random hooded rats (70-120 g) for 24 hours and then the rats are re-fed with Rat and Mouse No. 1 Maintenance Diet. […]
The rat's stomach is removed (with a small amount of duodenum attached), opened along the greater curvature and the contents removed by washing with 0.9% w/v sodium chloride solution (saline). The opened stomach is pinned out (mucosal surface uppermost) on a polystyrene mat and the area of damage assessed by placing a grid (composed of 1 mm squares) over the antral region. […] The total area of antral damage is then expressed as a percentage of the total surface area of the antrum.
The protective effect of the test compound on indomethacin-induced antral damage is calculated as a percentage using the following equation: [formula]

SMILES: COC(=O)COc1ccc(CC(C)NCC(O)c2cccc(Cl)c2)cc1 (stereo not shown) [BRL 35135, N-[2-(4-carbomethoxymethoxyphenyl)-1-methylethyl]-2-hydroxy-2-(3-chlorophenyl)ethanamine]
- effect of (S)-isomer of propranolol on the responses of BRL35135: no effect
